# Measurements as given in paper PMC11470999, “Penfluridol inhibits melanoma growth and metastasis through enhancing von Hippel‒Lindau tumor suppressor‐mediated cancerous inhibitor of protein phosphatase 2A (CIP2A) degradation” (MedComm, 2024).
# Sequences of proteins named here, by UniProt entry; tags and fusion partners are left off.
# UniProt P40338: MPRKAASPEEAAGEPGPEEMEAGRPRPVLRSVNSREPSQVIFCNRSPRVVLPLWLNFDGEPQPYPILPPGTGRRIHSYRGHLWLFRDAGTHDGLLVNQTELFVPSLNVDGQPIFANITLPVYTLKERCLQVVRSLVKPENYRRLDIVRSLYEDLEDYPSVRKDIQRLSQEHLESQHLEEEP
# Results are given in words; binding and its absence hold for the method and conditions named. For part of these data: Binding seen in cells or lysates may run through a third protein. Some entries that bind do so weakly or less than the wild type.
# What was measured:
# His-VHL = His-VHL (UniProt P40337); experiment: pull-down; His pull-down after incubating recombinant CIP2A (1-560), His-VHL and different concentrations of PF in vitro; Coomassie blue staining; both purified
# [1] = target: cancerous inhibitor of protein phosphatase 2A (CIP2A), endogenous in B16 cells (mouse (endogenous in B16)) (UniProt Q8BWY9); experiment: co-IP; immunoprecipitation with an anti-CIP2A antibody from B16 and A375 cells, untreated or treated with 5 µM PF for 24 h; VHL detected by immunoblot
# [2] = target: cancerous inhibitor of protein phosphatase 2A (CIP2A), endogenous in B16 cells (mouse (endogenous in B16)) (UniProt Q8BWY9); experiment: pull-down; B16 and A375 cells treated with PF-Biotin; streptavidin-biotin pull-down; CIP2A and VHL detected by immunoblot
binding (His-VHL),binding [1],binding [2],Substance
binds,–,–,recombinant CIP2A protein (1-560) (from UniProt Q8TCG1 1-560) (domain or fragment)
–,binds,binds,"von Hippel-Lindau tumor suppressor (VHL), endogenous in B16 cells (from UniProt P40338 1-181)"
